Z-score data for 103 sequences are collected here from PubChem BioAssay AID1347423 (Functional Genomics Laboratory (NCATS/FGL), 2020).

In all, about 52,000 sequences went through this assay and about 210 (0.4%) were called active.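 Rule for the calls: active = gene whose silencing raises cell survival under the drug, median off-target-corrected z-score across its silencing RNAs 2 or more; inactive = the rest.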 Some of the results follow.

This assay can be described thus: Resistance to Poly (ADP-Ribose) Polymerase inhibitor: Gene Identification via Genome-wide siRNA Screen. The following applies: mouse BRCA2 R2336H ES cells, olaparib, CellTiter-Glo viability; active compounds read high. The procedure, abridged:
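Genome-wide siRNA screen (3 siRNAs/gene, 20 nM) in mouse ES cells carrying hypomorphic BRCA2 R2336H; olaparib 500 nM added 48 h post-transfection, CellTiter-Glo viability 72 h later. Normalized to plate-median negative control; MAD z-scores, gene median, seed-adjusted.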
Consider “GGACAAUAAUGACAACAAATT against D230019K20Rik”, for which the z-score was inactive: 1.38.
For GCUCCUAUGGCAACAUCGUTT against Olfr303, the z-score was inactive: 0.615.
On to “CCCGGGUCAUCAUUUUAAUTT against B830017H08Rik”, for which the z-score was inactive: -0.175.
Take GGUUGACAACACAUCUGCUTT against AI788959: the z-score was inactive: 0.559.
Turning to CCACUGCUGUUAGGCUUGATT against Olfr810, the z-score is inactive: -2.58.
For the sequence GGUGGAAAGCAAGAAACACTT against Siat8f, the z-score was inactive: -0.842.
For GGCAGACGGUAAUAAACAUTT against AI507211, the z-score was inactive: 1.51.
In the case of “CGAAUAUCAAAGGAUACUUTT against 0610041E09Rik” it was inactive: -0.433; in that of “CGUUCUUUCAAGAAAGCAATT against 1110014K08Rik”, inactive: -0.951.
As to CCAGCAGAUAUUCUUACGGTT against Grb2, the z-score is inactive: 3.42.
In the case of “GCAGUCAAUGAACAUGUUGTT against 2900064A13Rik”, the z-score is inactive: 0.26.
In the case of GGAAGAAGAUGAAGACAUUTT against Trp53inp1, the z-score is inactive: -1.3.
Consider GGAAAACCGAGAAAAAAUGTT against Xpa, for which the z-score is inactive: -0.463.
“GGACAUCUACACCAUUUGGTT against 2810021B07Rik”: the z-score was inactive: -1.09.
In the case of “GGAACAAUGCCAGAAGUGUTT against 2510004L20Rik” it was inactive: -0.866; in that of CGGCGACACCAUAAUUUGGTT against Il1r1, inactive: -1.15.
In the case of CCGAGCACUCACUGUUUUATT against Ryr3, the z-score was inactive: 0.234.
For GGAGGAAGAUGGUCAUUCCTT against Ncoa6ip, the z-score is inactive: -0.808.
“CCUAUAUGCGCUAUUUGAATT against 4732465J09Rik”: the z-score was inactive: 0.557.
In the case of GCCGAGAAUGCUGAGUUCATT against Hmox1, the z-score was inactive: -0.0262.
Take CCUACGACUUCUACUACAUTT against Chst8: the z-score is inactive: -0.825.
Next, GAUAACAAGCAUCUCAUGUTT against Krtap16-8: inactive: 1.57; GGGAAAAGUGGUAAAUUAUTT against Shprh: inactive: -0.825; GGUGAUCCUUCUUUUUUACTT against Sgol1: inactive: -2.31.
On to GGCUAUUUUGGCUUGUAAATT against Jam2, for which the z-score was inactive: 0.291.
As for GACAAAGCCUAGAAUCAAUTT against Olfr402, the z-score is inactive: -1.43.
Consider GCACUUUGUAUAUCUUUCCTT against Btd, for which the z-score was inactive: 0.981.
CGGCAAGUUUAAGAAGGACTT against Uqcr: the z-score was inactive: 0.403.
For the sequence CCACAAAUGAGAACUUCCCTT against D4Ertd22e, the z-score was inactive: 0.683.
Next, “GGAACUCUCAAGAGAGAAUTT against 5730551F12Rik”: inactive: 0.885.
GGAAGCAACUUGGAAUUUGTT against Catna3: the z-score was inactive: -0.074.
GGAAGAAGUGGAUGCUGGATT against AV273951: the z-score was inactive: 0.444.
Turning to “GGUACCAGACCUCAUAGUUTT against 4732496G21Rik”, the z-score is inactive: -0.169.
Next, “CGCACAUGUAGUUAAUAAATT against 2400003L07Rik”: inactive: 1.18.
Next, CCCAGAAGAGGUUACAUUUTT against Cd200r4: inactive: -0.745.
“GGGCUAUGAACCUGAAGAGTT against 4121402D02Rik”: the z-score was inactive: -2.29.
Consider “AUCUGUUCCGGAGGAAUUUTT against 1700029I15Rik”, for which the z-score is inactive: -0.265.
On to CCUACUUGGACAUGAACCGTT against Vps18, for which the z-score is inactive: 0.553.
Regarding GGCUAGCAGUUCAGUGGAATT against Pex11a, the z-score was inactive: -0.831.
As for “GGUGUAUCGGAACAGUGAGTT against 2610034H20Rik”, the z-score is inactive: -2.04.
On to CGGUAUCAAGUGGUACUACTT against Angpt2, for which the z-score was inactive: 0.565.
Turning to “GGUAUAAGAAGAGAAUCCUTT against 1700128F08Rik”, the z-score is inactive: 0.648.
In the case of GGAAACUGGUGCUACAUUATT against Usp10, the z-score is inactive: 0.171.
Next, “CCAUGAGCACCUACUAUGCTT against C330014O21Rik”: inactive: -0.0142; GGUCAUGGAUGUGCACGAUTT against Krt1-14: inactive: 1.55; “CCUAGAACUUAAAUGGACATT against 1700013N18Rik”: inactive: 1.91.
Regarding GGAAAAUUCCUGUGAAUGATT against Bcor, the z-score was inactive: -0.187.
On to CCGUGAGAUAACUAUAGCUTT against Tsg-5, for which the z-score was inactive: 0.648.
With GGUGCUUAAUUCCUGUCCCTT against Ggn, the z-score is inactive: -0.173.
On to “CCACCUAUCAGGAUUCAACTT against 0610009D07Rik”, for which the z-score is inactive: -1.64.
Take GGAUGAGCUAGAGAUGACCTT against Kcnip1: the z-score is inactive: -1.07.
CCUCAGAACAAAUGAAAAUTT against Nlk: the z-score was inactive: -0.338.
Next, GCAGGUGAAAGUGCAGAUCTT against Timm9: inactive: -1.57; CGAUCAAAAGGAUUUCAUCTT against Gjb4: inactive: 0.52.
In the case of GGAGUGUAUAUUAUUGGUGTT against Olfr44 it was inactive: -0.237; in that of GCACAUACAGAGCUCGUCUTT against Zfp535, inactive: -1.92; in that of GGACAUCCAACCGUACAUGTT against Ccnd2, inactive: 0.925.
On to GGGUGAUAAAUGUUUGAAUTT against V1ra2, for which the z-score was inactive: -0.756.
As to GGGUUUCUGUUUGAUUCCATT against Gria1, the z-score was active: 1.91.
Regarding CCUGAGCUUUGAUGUCGAUTT against Arg1, the z-score was inactive: -1.77.
On to “CCUUGCACGACAUUUUACUTT against 5133401N09Rik”, for which the z-score was inactive: 0.637.
Regarding GGACUUCAUGGGUCGCUUUTT against Gstm2, the z-score was inactive: 0.177.
In the case of GGCCUUAGCAAAUAUGGCUTT against Nutf2 it was inactive: 0.534; in that of GGCUCUCUGGCUUACUAAGTT against Mrpl37, inactive: -0.936; in that of GGUUCAUUCGAUCUCAGACTT against Tmem10, inactive: 1.32.
For “GGUAGAGGUUAAGACGAUCTT against C330023D02Rik”, the z-score is inactive: -0.997.
With GCAGAAGUUAAGAUGCAUATT against Usf1, the z-score was inactive: -0.438.
Take “GCAAUGUGACCAAGACAAUTT against 2610524G07Rik”: the z-score is inactive: -0.299.
Take GCAAUGGCAACAGAGAGGATT against Dos: the z-score was inactive: -0.145.
For the sequence GGAACGAGACUCAUCUUCUTT against Cic, the z-score was active: 1.35.
For the sequence GGAAGAUGGAGAUCAGACGTT against Foxd4, the z-score was inactive: -0.943.
For the sequence CGGAUCCUACGGAAUUACGTT against Fpgs, the z-score is inactive: -1.47.
As for GGCAUAGCCAUGAUGACAUTT against St5, the z-score is inactive: 0.702.
Regarding GGGUUAUGGACACUACCCATT against Tnk1, the z-score was inactive: 0.295.
For CCUAUUUGUAGGUGAUGUUTT against B3gnt7, the z-score was inactive: -0.321.
Consider GCUAUCAAAGCUAAUACAUTT against Mrps9, for which the z-score is inactive: -0.437.
For GGAAAGACAGGUAAACUCATT against Slc6a17, the z-score was inactive: -1.25.
For the sequence GGCUCCAACAUAGAAAUGATT against Tpbpa, the z-score was inactive: -1.14.
In the case of CCAUCUAUGAUCCCAGAGCTT against Fbxw9 it was inactive: 0.241.
Consider “GGCUAUUGAUUCCUAUUAGTT against C030002J06Rik”, for which the z-score was inactive: -1.56.
In the case of CCGGAGCACCAUUAAGGUUTT against Nudt11 it was inactive: -1.14; in that of GGGUCGAUCAUUGUGGUCATT against Olfr508, inactive: 0.0811.
CCUUUUGUUUUACCUACUCTT against Tbx22: the z-score was inactive: 0.661.
Take GGAGAUUAAGAUUCAGCAGTT against Nmt2: the z-score is inactive: 1.32.
With GCUUUAAGGCCGUCAUCCATT against Gale, the z-score is inactive: -0.498.
Take GGUCUGGAUCAGAAGUCAATT against Hrh1: the z-score is inactive: 2.27.
As for GGCGCAUGUGCGGAAGAAATT against Tbc1d17, the z-score is inactive: -0.633.
With GCAAGGACCAAAUUACAUATT against Itgb3bp, the z-score is inactive: -0.404.
In the case of CCAACGGCAAUGGUUGCAUTT against Thoc3, the z-score is inactive: -0.513.
With “GGUCCAUUGAGCACUUUGCTT against B930041G04”, the z-score is inactive: 0.281.
Take CCAGUCAUUGUGCUUGUUATT against Sox12: the z-score is inactive: 0.751.
Regarding GCGAAUUCGAGAAAACCUGTT against Celsr1, the z-score is inactive: 0.494.
On to GGAUAGCCUGGAACUUAUCTT against Tnni3k, for which the z-score is inactive: 0.838.
Next, “GGAGAACACGCUCAGAAGATT against 1110058A15Rik”: inactive: 0.305.
In the case of GGCUCUUCACUCAUGUAUGTT against Olfr703, the z-score is inactive: 0.615.
In the case of CGUUUGCUCUAAAGCCAGGTT against BC004728 it was inactive: 1.02; in that of GCCGGAGACUAUCUGGUAGTT against Hps3, inactive: -0.447.
As for “GGACAUGUUUCCUGACCUGTT against B230208J24Rik”, the z-score is inactive: 0.734.
For the sequence “GGACCUGUCCCGUCAAAGATT against 1500015O10Rik”, the z-score was inactive: -0.00945.
As for CCGUUAAUGCCAUGAUCAATT against Olfr1364, the z-score was inactive: -0.251.
For CGGCAUUGUCACAGUUACGTT against Zfp496, the z-score is inactive: -0.4.
Next, GCAGGUAAAAUACAGGAGCTT against Gdi3: inactive: 1.05; GGUUGACGACUUUGUGUGUTT against Olfr90: inactive: 0.92.
